# Results from PMC3723668.
# The chains behind the UniProt entries cited, without tags or fusion partners. Residues count along the entry.
# UniProt P00519, residues 121-225: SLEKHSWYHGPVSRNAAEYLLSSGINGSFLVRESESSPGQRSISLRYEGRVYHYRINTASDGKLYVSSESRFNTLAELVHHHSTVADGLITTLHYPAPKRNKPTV
# GST-N-terminal SH2 domain of PI3KR1 (residues 327-437) (P27986, residues 327-437): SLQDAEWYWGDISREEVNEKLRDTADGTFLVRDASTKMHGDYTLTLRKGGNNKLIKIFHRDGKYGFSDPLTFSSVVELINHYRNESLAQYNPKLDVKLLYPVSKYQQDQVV
# GST-C-terminal SH2 domain of PI3KR1 (residues 617-724) (P27986, residues 617-724): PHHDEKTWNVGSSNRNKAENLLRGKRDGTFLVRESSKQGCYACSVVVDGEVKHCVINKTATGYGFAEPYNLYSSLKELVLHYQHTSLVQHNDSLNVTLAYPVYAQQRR
# UniProt P62993, residues 57-157: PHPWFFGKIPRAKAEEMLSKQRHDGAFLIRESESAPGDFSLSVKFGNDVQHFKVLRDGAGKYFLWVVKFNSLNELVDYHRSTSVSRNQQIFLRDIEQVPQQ
# UniProt P06241, residues 143-255: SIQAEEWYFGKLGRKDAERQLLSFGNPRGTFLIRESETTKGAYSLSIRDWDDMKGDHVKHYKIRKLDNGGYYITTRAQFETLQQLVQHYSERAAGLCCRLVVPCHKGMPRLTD
# UniProt Q15811, residues 1-1220: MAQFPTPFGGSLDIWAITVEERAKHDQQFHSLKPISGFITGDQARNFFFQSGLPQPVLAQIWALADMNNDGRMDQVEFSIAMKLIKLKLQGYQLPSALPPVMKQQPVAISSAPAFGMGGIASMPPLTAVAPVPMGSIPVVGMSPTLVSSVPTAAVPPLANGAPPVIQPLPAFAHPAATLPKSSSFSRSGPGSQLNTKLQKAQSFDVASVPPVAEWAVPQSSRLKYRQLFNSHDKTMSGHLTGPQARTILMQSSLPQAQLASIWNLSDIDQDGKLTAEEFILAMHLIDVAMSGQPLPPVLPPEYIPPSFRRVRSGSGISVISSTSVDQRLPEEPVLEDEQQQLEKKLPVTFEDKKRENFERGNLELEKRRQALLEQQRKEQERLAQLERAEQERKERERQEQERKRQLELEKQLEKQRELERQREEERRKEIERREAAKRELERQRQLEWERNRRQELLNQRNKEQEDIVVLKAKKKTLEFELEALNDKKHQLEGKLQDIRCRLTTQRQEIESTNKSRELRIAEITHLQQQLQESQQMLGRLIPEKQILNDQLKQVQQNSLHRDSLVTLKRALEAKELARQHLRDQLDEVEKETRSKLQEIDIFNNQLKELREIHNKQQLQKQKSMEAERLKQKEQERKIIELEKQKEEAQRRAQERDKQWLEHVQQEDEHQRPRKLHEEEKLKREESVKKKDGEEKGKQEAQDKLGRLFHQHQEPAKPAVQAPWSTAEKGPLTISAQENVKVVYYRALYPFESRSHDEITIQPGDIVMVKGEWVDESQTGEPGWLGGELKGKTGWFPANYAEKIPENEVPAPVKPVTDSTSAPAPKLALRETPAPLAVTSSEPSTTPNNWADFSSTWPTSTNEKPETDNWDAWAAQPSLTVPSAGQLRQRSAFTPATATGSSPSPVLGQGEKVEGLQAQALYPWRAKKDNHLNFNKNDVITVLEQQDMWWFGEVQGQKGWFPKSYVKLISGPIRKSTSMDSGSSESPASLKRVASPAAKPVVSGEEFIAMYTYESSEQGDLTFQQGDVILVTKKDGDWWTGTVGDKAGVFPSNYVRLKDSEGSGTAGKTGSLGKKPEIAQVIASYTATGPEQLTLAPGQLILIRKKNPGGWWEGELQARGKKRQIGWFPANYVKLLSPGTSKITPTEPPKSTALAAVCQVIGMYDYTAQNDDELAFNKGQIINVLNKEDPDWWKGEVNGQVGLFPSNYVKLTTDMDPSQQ
# Results are given in words; binding and its absence hold for the method and conditions named. Binding seen in cells or lysates may run through a third protein. Some results given as binding are weak or reduced against the parent protein; the word gives no strength. For some of these results: Where a sequence is shown, tags or fusion partners need not be part of it.
# T1: GST-SH2 domain of Itk (residues 246-363) (UniProt Q08881)
# T1 sequence: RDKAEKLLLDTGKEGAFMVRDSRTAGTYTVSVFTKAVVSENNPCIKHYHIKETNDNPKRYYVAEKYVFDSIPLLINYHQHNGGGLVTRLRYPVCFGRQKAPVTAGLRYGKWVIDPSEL
# T2: GST-SH2 domains of PLCg1 (residues 542-766) (UniProt P19174)
# T2 sequence: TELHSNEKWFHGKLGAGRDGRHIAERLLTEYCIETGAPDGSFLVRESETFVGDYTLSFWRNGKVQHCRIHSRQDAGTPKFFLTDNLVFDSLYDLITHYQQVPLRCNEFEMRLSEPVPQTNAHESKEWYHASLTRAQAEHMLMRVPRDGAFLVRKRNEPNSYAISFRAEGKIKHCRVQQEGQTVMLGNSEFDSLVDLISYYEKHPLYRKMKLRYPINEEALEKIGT
# T3: GST-SH2 domain of Crk (residues 5-127) (UniProt P46108)
# T3 sequence: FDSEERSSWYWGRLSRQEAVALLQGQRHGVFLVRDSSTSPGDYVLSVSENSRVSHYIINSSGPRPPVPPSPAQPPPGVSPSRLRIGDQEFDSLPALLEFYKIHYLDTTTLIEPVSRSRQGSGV
# T4: GST-fused SH3D domain of ITSN2 (residues 1044-1127) (human) (UniProt Q9NZM3)
# T4 sequence: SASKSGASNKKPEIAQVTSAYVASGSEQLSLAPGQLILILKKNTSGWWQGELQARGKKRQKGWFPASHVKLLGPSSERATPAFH
# T5: GST-fused SH3A domain of ITSN2 (residues 749-826) (human) (UniProt Q9NZM3)
# T5 sequence: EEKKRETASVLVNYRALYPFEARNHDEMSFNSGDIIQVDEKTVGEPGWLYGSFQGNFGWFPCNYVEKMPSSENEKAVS
# T6: GST-fused SH3B domain of ITSN2 (residues 891-964) (human) (UniProt Q9NZM3)
# T6 sequence: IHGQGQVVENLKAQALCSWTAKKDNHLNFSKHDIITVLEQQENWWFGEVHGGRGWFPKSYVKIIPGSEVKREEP
# Experiments:
# [1] = molecular target: GST-SH2 domain of Abl1 (residues 140-244) (UniProt P00519); assay: pull-down; GST-SH2 domains on glutathione beads incubated with lysate of HeLa cells starved overnight and stimulated with 20 ng/ml EGF; Western blot; only the target purified
# [2] = molecular target: GST-C-terminal SH2 domain of PI3KR1 (residues 617-724) (UniProt P27986); assay: as above
# [3] = molecular target: T1, GST-SH2 domain of Itk (residues 246-363); assay: as above
# [4] = molecular target: GST-N-terminal SH2 domain of PI3KR1 (residues 327-437) (UniProt P27986); assay: as above
# [5] = molecular target: T2, GST-SH2 domains of PLCg1 (residues 542-766); assay: as above
# [6] = molecular target: GST-SH2 domain of Fgr (residues 136-251) (UniProt P09769); assay: as above
# [7] = molecular target: GST-SH2 domain of Grb2 (residues 57-157) (UniProt P62993); assay: as above
# [8] = molecular target: T3, GST-SH2 domain of Crk (residues 5-127); assay: as above
# [9] = molecular target: GST-SH2 domain of Fyn (residues 143-255) (UniProt P06241); assay: as above
# [10] = molecular target: T4, GST-fused SH3D domain of ITSN2 (residues 1044-1127) (human); assay: pull-down; GST-SH3 domains (5-20 ug) on glutathione beads incubated 2 h at 4°C with lysate of HEK293 cells expressing the tagged protein; 20 mM Tris-HCl pH 7.5, 0.5% NP40, 150 mM NaCl, 10% glycerol, 1 mM Na3VO4; immunoblot with antibodies against tags; only the target purified
# [11] = molecular target: T5, GST-fused SH3A domain of ITSN2 (residues 749-826) (human); assay: as above
# [12] = molecular target: T6, GST-fused SH3B domain of ITSN2 (residues 891-964) (human); assay: as above
binding [1],binding [2],binding [3],binding [4],binding [5],binding [6],binding [7],binding [8],binding [9],binding [10],binding [11],binding [12],Molecule
no binding,no binding,no binding,no binding,no binding,no binding,no binding,no binding,no binding,,,,"intersectin 1 short isoform (ITSN1-S), endogenous in HeLa cells (from UniProt Q15811-2 1-1220)"
,,,,,,,,,binds,,,"Flag-Numb (protein, UniProt P49757 1-651) MNKLRQSFRRKKDVYVPEASRPHQWQTDEEGVRTGKCSFPVKYLGHVEVDESRGMHICEDAVKRLKAERKFFKGFFGKTGKKAVKAVLWVSADGLRVVDEKTKDLIVDQTIEKVSFCAPDRNFDRAFSYICRDGTTRRWICHCFMAVKDTGERLSHAVGCAFAACLERKQKREKECGVTATFDASRTTFTREGSFRVTTATEQAEREEIMKQMQDAKKAETDKIVVGSSVAPGNTAPSPSSPTSPTSDATTSLEMNNPHAIPRRHAPIEQLARQGSFRGFPALSQKMSPFKRQLSLRINELPSTMQRKTDFPIKNAVPEVEGEAESISSLCSQITNAFSTPEDPFSSAPMTKPVTVVAPQSPTFQANGTDSAFHVLAKPAHTALAPVAMPVRETNPWAHAPDAANKEIAATCSGTEWGQSSGAASPGLFQAGHRRTPSEADRWLEEVSKSVRAQQPQASAAPLQPVLQPPPPTAISQPASPFQGNAFLTSQPVPVGVVPALQPAFVPAQSYPVANGMPYPAPNVPVVGITPSQMVANVFGTAGHPQAAHPHQSPSLVRQQTFPHYEASSATTSPFFKPPAQHLNGSAAFNGVDDGRLASADRHTEVPTGTCPVDPFEAQWAALENKSKQRTNPSPTNPFSSDLQKTFEIEL"
,,,,,,,,,binds,binds,binds,"Omni-CdGAP central domain (residues 174-683) (domain or fragment, UniProt Q2M1Z3 174-683) WAPNLLRSKEIEATGCNGDAAFLAVRVQQVVIEFILNHVDQIFNNGAPGSLENDENRPIMKSLTLPALSLPMKLVSLEEAQARSLATNHPARKERRENSLPEIVPPMGTLFHTVLELPDNKRKLSSKSKKWKSIFNLGRSGSDSKSKLSRNGSVFVRGQRLSVEKATIRPAKSMDSLCSVPVEGKETKGNFNRTVTTGGFFIPATKMHSTGTGSSCDLTKQEGEWGQEGMPPGAEGGFDVSSDRSHLQGAQARPPPEQLKVFRPVEDPESEQTAPKMLGMFYTSNDSPSKSVFTSSLFQMEPSPRNQRKALNISEPFAVSVPLRVSAVISTNSTPCRTPPKELQSLSSLEEFSFHGSESGGWPEEEKPLGAETSAASVPKKAGLEDAKAVPEAPGTVECSKGLSQEPGAHLEEKKTPESSLSSQHLNELEKRPNPEKVVEEGREAGEMESSTLQESPRARAEAVLLHEMDEDDLANALIWPEIQQELKIIESEEELSSLPPPALKTSPIQ"
